Values from PubChem BioAssay AID1224830 (NIAID, 2016).
In all, the deposit lists about 18,000 reagents; this is a random part of them. About 2,900 of all reagents (16%) were called active. 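Calls are made per well; low scores hint the gene aids the LPS response, high scores that it dampens it.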 A number with no mark means an inactive call. Repeated entries: four replicate wells of each siRNA pool.

- Aim: 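Host factors that control LPS-induced TNF expression in human macrophages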 (primary screen)
- System: human THP-1 monocytic leukaemia cells, TNF dual-luciferase reporter clone, PMA-differentiated to macrophage-like cells
- Reagents: siRNA pool against human genes, 50 nM
- Time to read-out: LPS for 4 h, given about 3 days after siRNA transfection
- Challenge: bacterial LPS (TLR4 ligand), 10 ng/ml
- Detection: 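Ratio of firefly to renilla light, scaled to the plate median and expressed as a robust z-score per replicate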
- Scale: TNF reporter robust z-score: higher = stronger TNF reporter response to LPS
- Call rule: 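Each well counts as active if its z-score is over 2.8 or under -1.5; controls are left without a call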

| target | TNF reporter robust z-score |
| --- | --- |
| FLRT1 | 1.1 |
| FLRT1 | 0.82 |
| FLRT1 | 0.52 |
| FLRT1 | 0.43 |
| SMN1 | -0.35 |
| SMN1 | 0.26 |
| SMN1 | 0.36 |
| SMN1 | 0.49 |
| S100A7 | -0.19 |
| S100A7 | -0.02 |
| S100A7 | -0.05 |
| S100A7 | -0.04 |
| CCDC91 | 0.93 |
| CCDC91 | 0.74 |
| CCDC91 | 0.77 |
| CCDC91 | -0.42 |
| FHL2 | -1.29 |
| FHL2 | -1.06 |
| FHL2 | -0.93 |
| FHL2 | -1.18 |
| UGT2B17 | 0.5 |
| UGT2B17 | 1.48 |
| UGT2B17 | 0.88 |
| UGT2B17 | 2.09 |
| ATXN7 | 1.14 |
| ATXN7 | 2.31 |
| ATXN7 | 1.52 |
| ATXN7 | 1.81 |
| DEPDC7 | -0.01 |
| DEPDC7 | 0.54 |
| DEPDC7 | 0.1 |
| DEPDC7 | -0.08 |
| CDAN1 | 1.63 |
| CDAN1 | 0.25 |
| CDAN1 | -0.18 |
| CDAN1 | 0.79 |
| TAFA5 | -0.11 |
| TAFA5 | -0.94 |
| TAFA5 | -0.75 |
| TAFA5 | -1.07 |
| OR6C3 | -0.59 |
| OR6C3 | -0.82 |
| OR6C3 | -0.19 |
| OR6C3 | -0.02 |
| ABCC1 | 2.07 |
| ABCC1 | 0.68 |
| ABCC1 | 2.1 |
| ABCC1 | 3.54 (active) |
| CT47A8 | 2.32 |
| CT47A8 | 2.47 |
| CT47A8 | 0.14 |
| CT47A8 | 3.13 (active) |
| TOP3A | -0.36 |
| TOP3A | 1.66 |
| TOP3A | -0.1 |
| TOP3A | -0.13 |
| ABRAXAS2 | 0.95 |
| ABRAXAS2 | 1.27 |
| ABRAXAS2 | -0.98 |
| ABRAXAS2 | -0.68 |
| ITM2B | 0.19 |
| ITM2B | 1.6 |
| ITM2B | 0.78 |
| ITM2B | 1.24 |
| TMF1 | 1.04 |
| TMF1 | 1.56 |
| TMF1 | 1.55 |
| TMF1 | 1.21 |
| TMCO4 | 0.59 |
| TMCO4 | 0.92 |
| TMCO4 | -0.42 |
| TMCO4 | -0.07 |

11 successive records from above, for reference:
| target | TNF reporter robust z-score |
| --- | --- |
| DEPDC7 | -0.08 |
| CDAN1 | 1.63 |
| CDAN1 | 0.25 |
| CDAN1 | -0.18 |
| CDAN1 | 0.79 |
| TAFA5 | -0.11 |
| TAFA5 | -0.94 |
| TAFA5 | -0.75 |
| TAFA5 | -1.07 |
| OR6C3 | -0.59 |
| OR6C3 | -0.82 |

Further records follow:
| target | TNF reporter robust z-score |
| --- | --- |
| BAAT | -1.02 |
| BAAT | -0.24 |
| BAAT | -0.62 |
| BAAT | -1.04 |
| HOXB2 | 0.95 |
| HOXB2 | 1.43 |
| HOXB2 | 1.69 |
| HOXB2 | 1.27 |
| RBM45 | 0.98 |
| RBM45 | 0.37 |
| RBM45 | 1.35 |
| RBM45 | 1.24 |
| RETREG2 | -0.6 |
| RETREG2 | -0.61 |
| RETREG2 | -1.06 |
| RETREG2 | -0.99 |
| SELENOM | 0.07 |
| SELENOM | 0.96 |
| SELENOM | -0.52 |
| SELENOM | 0.51 |
| SLC36A3 | -1.74 (active) |
| SLC36A3 | -1.22 |
| SLC36A3 | -2 (active) |
| SLC36A3 | -1.46 |
| SSB | 0.98 |
| SSB | -1 |
| SSB | -0.03 |
| SSB | 0.24 |
| TRIM4 | 0 |
| TRIM4 | -0.16 |
| TRIM4 | -1.11 |
| TRIM4 | -1.48 |
| EME2 | 1.02 |
| EME2 | 1.79 |
| EME2 | 2.35 |
| EME2 | 2.02 |
| PCDHGA12 | 0 |
| PCDHGA12 | -0.48 |
| PCDHGA12 | -0.59 |
| PCDHGA12 | 2.31 |
